The supplement of paper PMC12823440, “Inhibitors supercharge kinase turnover through native proteolytic circuits” (Nature, 2025)
Where a name gives a salt, the structure may show the parent alone. Some of the results follow. The calls rarely recur for the same compound in another form.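 Kinases were expressed as nanoluciferase fusions in K562 cells and luminescence was read every 4 h between 2 and 18 h as percent of control, DMSO set to 100% and a positive control to 0%. A time point counts as decreased when the signal drops significantly (2 sigma). The hit call is the authors' own, does not follow from the count of time points alone, and its rule is not shown.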

Amino acid sequences for entries named in this document (tags omitted). A change or cut given only in a name is not applied to a line headed by its entry.
UniProt P07949, whole entry, looked up: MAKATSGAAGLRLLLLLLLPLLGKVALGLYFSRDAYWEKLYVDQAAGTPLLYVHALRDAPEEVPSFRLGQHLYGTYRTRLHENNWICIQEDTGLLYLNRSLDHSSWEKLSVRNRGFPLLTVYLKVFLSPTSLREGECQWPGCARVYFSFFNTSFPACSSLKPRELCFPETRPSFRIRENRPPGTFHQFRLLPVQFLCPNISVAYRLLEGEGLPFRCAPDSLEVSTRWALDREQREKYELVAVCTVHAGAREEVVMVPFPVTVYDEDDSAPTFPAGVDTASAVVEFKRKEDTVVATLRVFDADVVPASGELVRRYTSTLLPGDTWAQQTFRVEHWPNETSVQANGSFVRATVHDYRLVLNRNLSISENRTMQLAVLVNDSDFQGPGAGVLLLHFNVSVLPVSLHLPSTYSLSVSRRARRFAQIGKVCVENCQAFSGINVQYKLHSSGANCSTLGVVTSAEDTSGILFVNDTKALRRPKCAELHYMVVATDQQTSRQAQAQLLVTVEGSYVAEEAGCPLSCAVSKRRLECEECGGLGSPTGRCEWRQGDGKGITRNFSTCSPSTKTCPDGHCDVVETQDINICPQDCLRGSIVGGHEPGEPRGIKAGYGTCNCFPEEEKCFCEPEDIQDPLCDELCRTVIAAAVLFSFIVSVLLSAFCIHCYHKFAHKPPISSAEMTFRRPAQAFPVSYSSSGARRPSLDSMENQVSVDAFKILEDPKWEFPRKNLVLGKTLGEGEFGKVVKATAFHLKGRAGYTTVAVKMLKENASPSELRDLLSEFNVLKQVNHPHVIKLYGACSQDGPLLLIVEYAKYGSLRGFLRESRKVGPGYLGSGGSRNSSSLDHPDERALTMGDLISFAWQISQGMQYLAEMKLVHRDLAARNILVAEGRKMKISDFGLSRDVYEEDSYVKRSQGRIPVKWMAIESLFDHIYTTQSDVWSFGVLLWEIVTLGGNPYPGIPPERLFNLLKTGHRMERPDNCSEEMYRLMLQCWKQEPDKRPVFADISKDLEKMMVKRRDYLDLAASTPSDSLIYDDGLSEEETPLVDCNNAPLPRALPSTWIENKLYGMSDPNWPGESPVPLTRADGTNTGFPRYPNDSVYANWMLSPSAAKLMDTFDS
UniProt P07949, whole entry M918T, looked up: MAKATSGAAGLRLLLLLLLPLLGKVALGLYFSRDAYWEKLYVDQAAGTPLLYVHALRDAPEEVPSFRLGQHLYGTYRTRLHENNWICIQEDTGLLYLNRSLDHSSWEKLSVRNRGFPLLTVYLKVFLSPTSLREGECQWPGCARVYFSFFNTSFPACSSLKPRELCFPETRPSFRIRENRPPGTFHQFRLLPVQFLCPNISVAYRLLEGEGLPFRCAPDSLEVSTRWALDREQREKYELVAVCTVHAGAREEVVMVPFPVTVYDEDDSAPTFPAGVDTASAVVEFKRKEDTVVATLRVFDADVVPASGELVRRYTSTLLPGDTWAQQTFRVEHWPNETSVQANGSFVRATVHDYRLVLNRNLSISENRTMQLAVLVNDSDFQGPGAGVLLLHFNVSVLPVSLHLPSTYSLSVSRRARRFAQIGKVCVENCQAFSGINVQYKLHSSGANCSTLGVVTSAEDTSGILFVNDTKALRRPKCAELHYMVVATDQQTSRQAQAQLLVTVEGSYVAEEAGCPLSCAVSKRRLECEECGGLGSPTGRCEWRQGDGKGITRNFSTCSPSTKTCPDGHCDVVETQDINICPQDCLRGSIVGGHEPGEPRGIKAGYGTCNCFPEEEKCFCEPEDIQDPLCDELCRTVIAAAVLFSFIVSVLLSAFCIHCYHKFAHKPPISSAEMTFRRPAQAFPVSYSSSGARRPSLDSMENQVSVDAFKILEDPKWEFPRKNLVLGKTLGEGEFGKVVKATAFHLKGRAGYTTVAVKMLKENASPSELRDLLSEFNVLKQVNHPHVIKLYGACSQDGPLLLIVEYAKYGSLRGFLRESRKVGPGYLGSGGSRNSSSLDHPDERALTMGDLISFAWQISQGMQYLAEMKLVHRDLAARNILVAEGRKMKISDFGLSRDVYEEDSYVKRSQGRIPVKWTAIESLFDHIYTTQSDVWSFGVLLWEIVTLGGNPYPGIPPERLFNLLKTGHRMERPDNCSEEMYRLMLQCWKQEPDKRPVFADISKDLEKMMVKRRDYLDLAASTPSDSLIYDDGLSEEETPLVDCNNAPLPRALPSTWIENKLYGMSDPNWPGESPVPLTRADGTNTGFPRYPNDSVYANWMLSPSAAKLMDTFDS
UniProt Q9BRS2: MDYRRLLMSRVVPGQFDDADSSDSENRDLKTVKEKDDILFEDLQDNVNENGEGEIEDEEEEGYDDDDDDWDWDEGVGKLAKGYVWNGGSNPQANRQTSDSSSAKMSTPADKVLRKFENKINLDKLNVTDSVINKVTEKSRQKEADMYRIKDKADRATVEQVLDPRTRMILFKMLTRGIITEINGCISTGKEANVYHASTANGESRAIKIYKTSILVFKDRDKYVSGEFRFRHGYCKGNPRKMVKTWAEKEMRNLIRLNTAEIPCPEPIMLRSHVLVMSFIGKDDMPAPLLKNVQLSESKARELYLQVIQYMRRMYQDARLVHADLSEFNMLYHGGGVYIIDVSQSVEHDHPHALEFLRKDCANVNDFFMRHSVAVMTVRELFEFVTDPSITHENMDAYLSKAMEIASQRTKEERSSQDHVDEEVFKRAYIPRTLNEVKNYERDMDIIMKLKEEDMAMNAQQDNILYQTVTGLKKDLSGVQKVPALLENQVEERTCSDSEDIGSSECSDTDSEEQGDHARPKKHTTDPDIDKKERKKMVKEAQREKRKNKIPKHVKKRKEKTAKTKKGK
UniProt Q13546: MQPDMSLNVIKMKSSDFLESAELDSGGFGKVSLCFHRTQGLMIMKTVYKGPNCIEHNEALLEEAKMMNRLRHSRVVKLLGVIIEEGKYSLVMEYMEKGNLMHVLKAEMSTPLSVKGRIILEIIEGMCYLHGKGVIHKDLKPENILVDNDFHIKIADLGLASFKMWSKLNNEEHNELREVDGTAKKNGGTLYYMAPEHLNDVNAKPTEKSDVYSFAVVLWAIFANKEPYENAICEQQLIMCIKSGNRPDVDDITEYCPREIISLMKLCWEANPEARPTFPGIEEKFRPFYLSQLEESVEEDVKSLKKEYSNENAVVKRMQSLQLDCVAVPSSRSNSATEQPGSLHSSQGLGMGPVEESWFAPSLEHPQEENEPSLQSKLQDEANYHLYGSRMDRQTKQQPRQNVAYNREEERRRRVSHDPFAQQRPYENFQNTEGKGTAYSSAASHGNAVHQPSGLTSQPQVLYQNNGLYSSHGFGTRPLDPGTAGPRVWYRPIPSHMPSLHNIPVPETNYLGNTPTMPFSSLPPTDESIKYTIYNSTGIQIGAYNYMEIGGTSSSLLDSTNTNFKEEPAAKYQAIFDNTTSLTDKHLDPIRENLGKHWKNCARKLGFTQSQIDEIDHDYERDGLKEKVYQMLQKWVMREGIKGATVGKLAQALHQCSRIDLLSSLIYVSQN
UniProt Q01974, whole entry: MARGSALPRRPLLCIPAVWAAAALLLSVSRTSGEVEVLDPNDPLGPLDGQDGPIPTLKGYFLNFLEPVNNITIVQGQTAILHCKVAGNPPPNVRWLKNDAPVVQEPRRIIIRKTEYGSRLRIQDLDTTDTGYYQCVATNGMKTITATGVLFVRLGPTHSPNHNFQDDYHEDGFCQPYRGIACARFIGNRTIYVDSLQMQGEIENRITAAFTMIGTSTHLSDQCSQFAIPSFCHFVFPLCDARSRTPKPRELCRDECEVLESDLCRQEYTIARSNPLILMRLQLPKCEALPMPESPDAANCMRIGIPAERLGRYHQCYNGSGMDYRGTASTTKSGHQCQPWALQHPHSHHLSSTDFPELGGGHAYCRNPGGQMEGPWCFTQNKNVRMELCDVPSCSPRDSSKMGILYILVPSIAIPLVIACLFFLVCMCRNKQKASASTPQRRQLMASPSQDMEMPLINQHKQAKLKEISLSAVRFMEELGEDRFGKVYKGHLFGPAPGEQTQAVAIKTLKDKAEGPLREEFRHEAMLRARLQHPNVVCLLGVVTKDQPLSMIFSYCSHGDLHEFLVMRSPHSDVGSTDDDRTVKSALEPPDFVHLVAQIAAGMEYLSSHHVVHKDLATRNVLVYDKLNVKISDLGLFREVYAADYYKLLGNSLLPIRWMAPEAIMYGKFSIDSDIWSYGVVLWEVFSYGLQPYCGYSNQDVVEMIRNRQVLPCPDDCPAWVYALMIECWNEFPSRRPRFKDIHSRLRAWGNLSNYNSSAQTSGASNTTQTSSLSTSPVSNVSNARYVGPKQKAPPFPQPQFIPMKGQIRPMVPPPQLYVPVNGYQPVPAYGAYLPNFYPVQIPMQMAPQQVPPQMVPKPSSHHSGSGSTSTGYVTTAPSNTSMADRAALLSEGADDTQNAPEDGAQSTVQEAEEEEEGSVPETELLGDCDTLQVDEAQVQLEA
UniProt Q15418, whole entry: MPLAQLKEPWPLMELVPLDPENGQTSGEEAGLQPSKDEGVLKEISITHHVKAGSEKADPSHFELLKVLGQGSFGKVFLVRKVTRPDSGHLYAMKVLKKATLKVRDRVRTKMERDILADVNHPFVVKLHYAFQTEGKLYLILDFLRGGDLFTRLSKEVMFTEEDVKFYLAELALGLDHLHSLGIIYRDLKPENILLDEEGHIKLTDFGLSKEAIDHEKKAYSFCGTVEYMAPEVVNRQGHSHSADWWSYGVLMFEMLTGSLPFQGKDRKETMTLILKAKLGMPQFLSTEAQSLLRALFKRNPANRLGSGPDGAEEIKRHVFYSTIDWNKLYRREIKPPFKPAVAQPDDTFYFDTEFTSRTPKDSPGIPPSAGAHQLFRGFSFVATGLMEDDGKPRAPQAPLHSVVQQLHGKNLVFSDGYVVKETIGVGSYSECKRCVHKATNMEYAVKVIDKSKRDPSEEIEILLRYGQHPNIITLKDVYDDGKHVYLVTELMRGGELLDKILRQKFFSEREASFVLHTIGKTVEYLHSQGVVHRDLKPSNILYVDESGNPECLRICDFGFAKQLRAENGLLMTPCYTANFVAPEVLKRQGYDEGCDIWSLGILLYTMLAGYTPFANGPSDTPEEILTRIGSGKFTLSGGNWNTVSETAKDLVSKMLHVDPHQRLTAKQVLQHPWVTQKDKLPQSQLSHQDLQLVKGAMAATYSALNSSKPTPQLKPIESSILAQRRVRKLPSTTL
UniProt Q9NYA1, whole entry: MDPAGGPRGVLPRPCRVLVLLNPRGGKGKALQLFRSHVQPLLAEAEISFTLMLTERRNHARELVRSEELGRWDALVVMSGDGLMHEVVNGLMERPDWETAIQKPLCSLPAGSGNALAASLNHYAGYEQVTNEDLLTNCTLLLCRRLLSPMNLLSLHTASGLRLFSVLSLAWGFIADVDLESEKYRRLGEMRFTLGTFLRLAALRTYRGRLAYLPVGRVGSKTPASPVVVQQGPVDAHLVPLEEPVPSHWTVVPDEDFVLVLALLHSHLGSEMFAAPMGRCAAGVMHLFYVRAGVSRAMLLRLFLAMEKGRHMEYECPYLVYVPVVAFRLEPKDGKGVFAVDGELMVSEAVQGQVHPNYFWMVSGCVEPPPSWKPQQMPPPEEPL
UniProt Q9Y6E0: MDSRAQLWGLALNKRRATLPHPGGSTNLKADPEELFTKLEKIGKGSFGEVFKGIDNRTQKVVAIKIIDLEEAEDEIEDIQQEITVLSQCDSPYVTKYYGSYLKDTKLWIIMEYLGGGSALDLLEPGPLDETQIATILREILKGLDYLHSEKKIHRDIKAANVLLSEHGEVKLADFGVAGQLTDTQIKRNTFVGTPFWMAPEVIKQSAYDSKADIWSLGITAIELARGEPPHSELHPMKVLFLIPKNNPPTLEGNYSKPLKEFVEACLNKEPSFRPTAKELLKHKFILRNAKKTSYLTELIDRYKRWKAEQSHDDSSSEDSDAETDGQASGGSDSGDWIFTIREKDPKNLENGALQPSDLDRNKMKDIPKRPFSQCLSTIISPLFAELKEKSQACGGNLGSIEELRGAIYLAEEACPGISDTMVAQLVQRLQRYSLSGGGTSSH

Columns and labels:
Assay in all cases: kinase-Nluc reporter destabilization hit call (1 = scored as downregulated) (binary); higher = compound decreases kinase abundance
Conditions in all cases: K562; 2-18 h
[1] = target: RET (UniProt P07949)
[2] = target: RET_M918T (clone: RET_mut) (UniProt P07949)
[3] = target: RIOK1 (UniProt Q9BRS2)
[4] = target: RIPK1 (UniProt Q13546)
[5] = target: RIPK2 (UniProt O43353)
[6] = target: ROR2 (UniProt Q01974)
[7] = target: RPS6KA1 (UniProt Q15418)
[8] = target: SPHK1 (UniProt Q9NYA1)
[9] = target: SRC (UniProt P12931)
[10] = target: STK24 (UniProt Q9Y6E0)

Measured: kinase-Nluc reporter destabilization hit call

CC/C(=N\NC(=O)c1ccnc(NCCCN2CCOCC2)c1)c1ccc(Cl)cc1O (2.5 µM)
inactive: [1] 0 | [2] 0 | [3] 0 | [4] 0 | [5] 0 | [6] 0 | [7] 0 | [8] 0 | [9] 0 | [10] 0

COc1cc2ncnc(Nc3ccccc3)c2cc1OC (10 µM)
inactive: [1] 0 | [2] 0 | [3] 0 | [4] 0 | [5] 0 | [6] 0 | [7] 0 | [8] 0 | [9] 0 | [10] 0

N#CC(c1ccnc(OCc2ccc(CN3CCOCC3)cc2)n1)c1nc2ccccc2s1 (stereo not given) [Bentamapimod] (2.5 µM)
inactive: [1] 0 | [2] 0 | [3] 0 | [4] 0 | [5] 0 | [6] 0 | [7] 0 | [8] 0 | [9] 0 | [10] 0

c1ccc(-c2nc(=NCCN3CCOCC3)sn2-c2ccccc2)cc1 [VP3.15 (dihydrobromide)] (10 µM)
inactive: [1] 0 | [2] 0 | [3] 0 | [4] 0 | [5] 0 | [6] 0 | [7] 0 | [8] 0 | [9] 0 | [10] 0

Cc1cccc2c3c(ccc12)C(=O)C1=C(OCC1C)C3=O (stereo not given) [Dihydroisotanshinone I] (2.5 µM)
inactive: [1] 0 | [2] 0 | [3] 0 | [4] 0 | [5] 0 | [6] 0 | [7] 0 | [8] 0 | [9] 0 | [10] 0

c1cc(NC2CCNCC2)nc(-c2cnc3ccccn23)c1 [IRAK inhibitor 1] (10 µM)
inactive: [1] 0 | [2] 0 | [3] 0 | [4] 0 | [5] 0 | [6] 0 | [7] 0 | [8] 0 | [9] 0 | [10] 0

O=C(Nc1cccc(Nc2ncc(Br)c(NCCc3cnc[nH]3)n2)c1)N1CCCC1 (10 µM)
inactive: [1] 0 | [2] 0 | [3] 0 | [4] 0 | [5] 0 | [6] 0 | [7] 0 | [8] 0 | [9] 0 | [10] 0

COc1cc(N2CCOCC2)ccc1Nc1ncc(Cl)c(Nc2ccccc2NS(C)(=O)=O)n1 (2.5 µM)
inactive: [1] 0 | [2] 0 | [3] 0 | [4] 0 | [5] 0 | [6] 0 | [7] 0 | [8] 0 | [9] 0 | [10] 0

CC(C)(C)n1nc(Cc2ccccc2O)c2c(N)ncnc21 (10 µM)
inactive: [1] 0 | [2] 0 | [3] 0 | [4] 0 | [5] 0 | [6] 0 | [7] 0 | [8] 0 | [9] 0 | [10] 0

COc1ccc2cc(-c3nc(-c4ccc([S+](C)[O-])cc4)[nH]c3-c3ccncc3)ccc2c1 (stereo not given) [Tie2 kinase inhibitor 1] (2.5 µM)
inactive: [1] 0 | [2] 0 | [3] 0 | [4] 0 | [5] 0 | [6] 0 | [7] 0 | [8] 0 | [9] 0 | [10] 0

CNC(=O)c1ccccc1Nc1nc(Nc2ccc3c(c2OC)CCC[C@H](N2CCN(CCO)CC2)C3)ncc1Cl (10 µM)
inactive: [1] 0 | [2] 0 | [3] 0 | [4] 0 | [5] 0 | [6] 0 | [7] 0 | [8] 0 | [9] 0 | [10] 0

Cn1cnc([N+](=O)[O-])c1C[N+](C)(C)C/C=C/C(=O)Nc1cc2c(Nc3ccc(Cl)c(Br)c3)ncnc2cn1 [Tarloxotinib (bromide)] (10 µM)
inactive: [1] 0 | [2] 0 | [3] 0 | [4] 0 | [5] 0 | [6] 0 | [7] 0 | [8] 0 | [9] 0 | [10] 0

O=C(Nc1nc2ccc(NC(=O)C34CC5CC(CC(C5)C3)C4)cc2s1)c1ccccc1 (10 µM)
inactive: [1] 0 | [2] 0 | [3] 0 | [4] 0 | [5] 0 | [6] 0 | [7] 0 | [8] 0 | [9] 0 | [10] 0

CC(=O)N1CCC(c2cc(-c3ccc(NC(=O)c4cccn(-c5ccc(F)cc5)c4=O)cc3F)c3c(N)ncnn23)CC1 (0.5 µM)
inactive: [1] 0 | [2] 0 | [3] 0 | [4] 0 | [5] 0 | [6] 0 | [7] 0 | [8] 0 | [9] 0 | [10] 0

COc1cc(N(C)CCN(C)C)c(N)cc1Nc1nccc(-c2cn(C)c3ccccc23)n1 [Mutated EGFR-IN-1] (10 µM)
inactive: [1] 0 | [2] 0 | [3] 0 | [4] 0 | [5] 0 | [6] 0 | [7] 0 | [8] 0 | [9] 0 | [10] 0

O=C(NC1CCOCC1)c1ccc(-c2cc(-c3c[nH]nc3-c3ccccn3)ccn2)cc1 (10 µM)
inactive: [1] 0 | [2] 0 | [3] 0 | [4] 0 | [5] 0 | [6] 0 | [7] 0 | [8] 0 | [9] 0 | [10] 0

Nc1c(C(=O)NCc2ccc(C(=O)NCCCC3CCCCC3)cc2)cnn1-c1ccccc1 (2.5 µM)
inactive: [1] 0 | [2] 0 | [3] 0 | [4] 0 | [5] 0 | [6] 0 | [7] 0 | [8] 0 | [9] 0 | [10] 0

CC(C)S(=O)(=O)c1ccc2nccc(Nc3ccc4scnc4c3)c2c1 (10 µM)
inactive: [1] 0 | [2] 0 | [3] 0 | [4] 0 | [5] 0 | [6] 0 | [7] 0 | [8] 0 | [9] 0 | [10] 0

O=C(Nc1nc2ccccc2[nH]1)c1cccc([N+](=O)[O-])c1 [IRAK-4 protein kinase inhibitor 2] (10 µM)
inactive: [1] 0 | [2] 0 | [3] 0 | [4] 0 | [5] 0 | [6] 0 | [7] 0 | [8] 0 | [9] 0 | [10] 0

N[C@@H](CCC(=O)O)C(=O)N[C@@H](Cc1c[nH]c2ccccc12)C(=O)O [Oglufanide] (10 µM)
inactive: [1] 0 | [2] 0 | [3] 0 | [4] 0 | [5] 0 | [6] 0 | [7] 0 | [8] 0 | [9] 0 | [10] 0

CCN(CC)c1cc2oc(=O)c(-c3nc4ccccc4o3)cc2cc1C (2.5 µM)
inactive: [1] 0 | [2] 0 | [3] 0 | [4] 0 | [5] 0 | [6] 0 | [7] 0 | [8] 0 | [9] 0 | [10] 0

C[C@H](NC(=O)[C@H]1NCC[C@@H]1O)c1ccc(-c2noc(CCC3CCCC3)n2)cc1 (10 µM)
inactive: [1] 0 | [2] 0 | [3] 0 | [4] 0 | [5] 0 | [6] 0 | [7] 0 | [8] 0 | [9] 0 | [10] 0

CNc1cc(Nc2cccn(-c3ccccn3)c2=O)nn2c(C(=O)N[C@@H]3C[C@@H]3F)cnc12 (2.5 µM)
inactive: [1] 0 | [2] 0 | [3] 0 | [4] 0 | [5] 0 | [6] 0 | [7] 0 | [8] 0 | [9] 0 | [10] 0

CN(C)S(=O)(=O)c1ccc2c(c1)/C(=C/c1cc3c([nH]1)CCCC3)C(=O)N2 (2.5 µM)
inactive: [1] 0 | [2] 0 | [3] 0 | [4] 0 | [5] 0 | [6] 0 | [7] 0 | [8] 0 | [9] 0 | [10] 0

CC(C)(O)[C@H]1CC[C@H](Nc2ccc3ncc(-c4cccc(C(F)(F)F)c4)n3n2)CC1 (10 µM)
inactive: [1] 0 | [2] 0 | [3] 0 | [4] 0 | [5] 0 | [6] 0 | [7] 0 | [8] 0 | [9] 0 | [10] 0

Oc1ccc(/C=C/c2cc(O)cc(F)c2)cc1 [Resveratrol analog 1] (10 µM)
inactive: [1] 0 | [2] 0 | [3] 0 | [4] 0 | [5] 0 | [6] 0 | [7] 0 | [8] 0 | [9] 0 | [10] 0

C=CC(=O)Nc1cc(Nc2nccc(-n3cc(CN(C)C)c(-c4ccccc4)n3)n2)c(OC)cc1N1CCOCC1 [Lazertinib] (10 µM)
inactive: [1] 0 | [2] 0 | [3] 0 | [4] 0 | [5] 0 | [6] 0 | [7] 0 | [8] 0 | [9] 0 | [10] 0

CN1CC[C@@H](c2c(O)cc(O)c3c(=O)cc(-c4ccc(C(F)(F)F)cc4Cl)oc23)[C@@H]1CO [Voruciclib (hydrochloride)] (10 µM)
inactive: [1] 0 | [2] 0 | [3] 0 | [4] 0 | [5] 0 | [6] 0 | [7] 0 | [8] 0 | [9] 0 | [10] 0

Part of the list above in order of molecular weight, low to high:
CC(C)(C)n1nc(Cc2ccccc2O)c2c(N)ncnc21 (10 µM)
inactive: [1] 0 | [2] 0 | [3] 0 | [4] 0 | [5] 0 | [6] 0 | [7] 0 | [8] 0 | [9] 0 | [10] 0

CNc1cc(Nc2cccn(-c3ccccn3)c2=O)nn2c(C(=O)N[C@@H]3C[C@@H]3F)cnc12 (2.5 µM)
inactive: [1] 0 | [2] 0 | [3] 0 | [4] 0 | [5] 0 | [6] 0 | [7] 0 | [8] 0 | [9] 0 | [10] 0

O=C(Nc1cccc(Nc2ncc(Br)c(NCCc3cnc[nH]3)n2)c1)N1CCCC1 (10 µM)
inactive: [1] 0 | [2] 0 | [3] 0 | [4] 0 | [5] 0 | [6] 0 | [7] 0 | [8] 0 | [9] 0 | [10] 0

Next part

COc1cc(N2CCOCC2)ccc1NC(=O)c1csc(-c2cccnc2)n1 [IRAK inhibitor 6] (10 µM)
inactive: [1] 0 | [2] 0 | [3] 0 | [4] 0 | [5] 0 | [6] 0 | [7] 0 | [8] 0 | [9] 0 | [10] 0
